Source: patent publication US10159726B2, “Peptides, combination of peptides and scaffolds for use in immunotherapeutic treatment of various cancers” (Immatics Biotechnologies GmbH, priority 2015, dated 2018)

Legend:
Set-up in all cases: species or system human
[1] = system: source genes of selected peptides; test: Expression profiling of source genes by in-house RNAseq, tumor vs normal tissues (target coverage); settings: for Target coverage, over-expression of source gene, AML: AML (N = 7), over-expression = more than 1.5-fold higher expression on tumor vs highest-expressing relevant normal tissue; for Target coverage, over-expression of source gene, AML / Target coverage, over-expression of source gene, BRCA / Target coverage, over-expression of source gene, CLL / Target coverage, over-expression of source gene, CRC / Target coverage, over-expression of source gene, GB / Target coverage, over-expression of source gene, HCC / Target coverage, over-expression of source gene, OC / Target coverage, over-expression of source gene, OSCAR / Target coverage, over-expression of source gene, PC / Target coverage, over-expression of source gene, RCC / Target coverage, over-expression of source gene, SCLC / Target coverage, over-expression of source gene, pNSCLC: in-house RNASeq; for Target coverage, over-expression of source gene, BRCA: BRCA (N = 10); for Target coverage, over-expression of source gene, BRCA / Target coverage, over-expression of source gene, CLL / Target coverage, over-expression of source gene, CRC / Target coverage, over-expression of source gene, GB / Target coverage, over-expression of source gene, HCC / Target coverage, over-expression of source gene, OC / Target coverage, over-expression of source gene, OSCAR / Target coverage, over-expression of source gene, PC / Target coverage, over-expression of source gene, RCC / Target coverage, over-expression of source gene, SCLC / Target coverage, over-expression of source gene, pNSCLC: over-expression = more than 1.5-fold vs highest normal tissue; for Target coverage, over-expression of source gene, CLL: CLL (N = 10); for Target coverage, over-expression of source gene, CRC: CRC (N = 20); for Target coverage, over-expression of source gene, GB: GB (N = 24); for Target coverage, over-expression of source gene, HCC: HCC (N = 15); for Target coverage, over-expression of source gene, OC: OC (N = 12); for Target coverage, over-expression of source gene, OSCAR: OSCAR (N = 11); for Target coverage, over-expression of source gene, PC: PC (N = 26); for Target coverage, over-expression of source gene, RCC: RCC (N = 10); for Target coverage, over-expression of source gene, SCLC: SCLC (N = 10); for Target coverage for source genes of selected peptides, GBC_CCC (N = 10): gallbladder adenocarcinoma and cholangiocarcinoma; for Target coverage for source genes of selected peptides, GBC_CCC (N = 10) / Target coverage for source genes of selected peptides, GC (N = 11) / Target coverage for source genes of selected peptides, HNSCC (N = 10) / Target coverage for source genes of selected peptides, MEL (N = 10) / Target coverage for source genes of selected peptides, NHL (N = 10) / Target coverage for source genes of selected peptides, PCA (n = 10) / Target coverage for source genes of selected peptides, UBC (N = 10) / Target coverage for source genes of selected peptides, UTC (N = 10): share of tumors with more than 1.5-fold higher expression than the highest-expressing relevant normal tissue, in-house RNAseq; for Target coverage for source genes of selected peptides, GC (N = 11): gastric cancer; for Target coverage for source genes of selected peptides, HNSCC (N = 10): head and neck small cell carcinoma; for Target coverage for source genes of selected peptides, MEL (N = 10): melanoma; for Target coverage for source genes of selected peptides, NHL (N = 10): non-Hodgkin lymphoma; for Target coverage, over-expression of source gene, pNSCLC: pNSCLC (N = 11); for Target coverage for source genes of selected peptides, PCA (n = 10): prostate cancer and benign prostate hyperplasia; for Target coverage for source genes of selected peptides, UBC (N = 10): urinary bladder cancer; for Target coverage for source genes of selected peptides, UTC (N = 10): uterine cancer
[2] = system: HLA-A*02 molecules of primary tumors; test: Identification and relative LC-MS quantitation of HLA-A*02 tumor-associated peptides presented on tissue samples (XPRESIDENT presentation profiles)
[3] = system: source genes of selected peptides; test: Target coverage of source genes in tumor entities based on TCGA Research Network data; settings: over-expressed = more than 2-fold above the highest 75% percentile of normal organs
[4] = Table 8A: selected HLA-A*02-binding tumor-associated peptides, cancer entities on which the peptide was found presented
[5] = Table 8B: selected HLA-A*02 peptides, presentation on additional cancer entities

Substance	Target coverage, over-expression of source gene, AML [1]	Target coverage, over-expression of source gene, BRCA [1]	Target coverage, over-expression of source gene, CLL [1]	Target coverage, over-expression of source gene, CRC [1]	Target coverage, over-expression of source gene, GB [1]	Target coverage, over-expression of source gene, HCC [1]	Target coverage, over-expression of source gene, OC [1]	Target coverage, over-expression of source gene, OSCAR [1]	Target coverage, over-expression of source gene, PC [1]	Target coverage, over-expression of source gene, RCC [1]	Target coverage, over-expression of source gene, SCLC [1]	Target coverage, over-expression of source gene, pNSCLC [1]	Peptide Presentation on cancer entities [2, 4]	Peptide Presentation on cancer entities [2, 5]	further results
53: peptide found in ATR (gene looked up) (SLLSHVIVA; listed as Homo sapiens) [compound 53]	I (<19% over-expression = I)	II (20-49% = II)	I (<19% over-expression = I)	II (20-49% = II)	I (<19% over-expression = I)	I (<19% over-expression = I)	II (20-49% = II)	II (20-49% = II)	I (<19% over-expression = I)	I (<19% over-expression = I)	II (20-49% = II)	II (20-49% = II)	clPC, RCC, GBC_CCC, UBC, NSCLC	HCC, AML, OC, OSCAR, HNSCC, MEL, CLL, NHL, BRCA	Target coverage for source genes of selected peptides, GBC_CCC (N = 10) [1]: II (20-49% = II); Target coverage for source genes of selected peptides, GC (N = 11) [1]: I (<19% over-expression = I); Target coverage for source genes of selected peptides, HNSCC (N = 10) [1]: I (<19% over-expression = I); Target coverage for source genes of selected peptides, MEL (N = 10) [1]: I (<19% over-expression = I); Target coverage for source genes of selected peptides, NHL (N = 10) [1]: III (50-69% = III); Target coverage for source genes of selected peptides, PCA (n = 10) [1]: I (<19% over-expression = I); Target coverage for source genes of selected peptides, UBC (N = 10) [1]: I (<19% over-expression = I); Target coverage for source genes of selected peptides, UTC (N = 10) [1]: II (20-49% = II)
331: peptide found in RIF1 (gene looked up) (AIWKELISL; listed as Homo sapiens) [compound 331]	I (<19% over-expression = I)	I (<19% over-expression = I)	I (<19% over-expression = I)	I (<19% over-expression = I)	II (20-49% = II)	I (<19% over-expression = I)	I (<19% over-expression = I)	I (<19% over-expression = I)	I (<19% over-expression = I)	I (<19% over-expression = I)	III (50-69% = III)	I (<19% over-expression = I)	GB, CRC	MEL, CLL, NSCLC	Target coverage for source genes of selected peptides, GBC_CCC (N = 10) [1]: I (<19% over-expression = I); Target coverage for source genes of selected peptides, GC (N = 11) [1]: I (<19% over-expression = I); Target coverage for source genes of selected peptides, HNSCC (N = 10) [1]: II (20-49% = II); Target coverage for source genes of selected peptides, MEL (N = 10) [1]: I (<19% over-expression = I); Target coverage for source genes of selected peptides, NHL (N = 10) [1]: I (<19% over-expression = I); Target coverage for source genes of selected peptides, PCA (n = 10) [1]: I (<19% over-expression = I); Target coverage for source genes of selected peptides, UBC (N = 10) [1]: I (<19% over-expression = I); Target coverage for source genes of selected peptides, UTC (N = 10) [1]: I (<19% over-expression = I)
38: peptide found in CACNA2D1 (gene looked up) (KMQEDLVTL; listed as Homo sapiens) [compound 38]	–	–	–	–	–	–	–	–	–	–	–	–	NSCLC, RCC, OC, GC, GBC_CCC, OSCAR, clPC, GB, BRCA, PCA, PC, UEC, HCC, CRC, SCLC, NHL	MEL, AML	Target coverage, over-expression category of source gene, PCPG (N = 184) ([3]; Pheochromocytoma and paraganglioma): C (>=5% of tumors above the cutoff, but <20%)
340: peptide found in MOB1A (gene looked up) (SVAKTILKR; listed as Homo sapiens) [compound 340]	–	–	–	–	–	–	–	–	–	–	–	–	NSCLC, OSCAR	NHL	Target coverage, over-expression category of source gene, KICH (N = 66) ([3]; Kidney chromophobe): B (>=20% of tumors above the cutoff, but <50%); Target coverage, over-expression category of source gene, DLBC (N = 48) ([3]; Lymphoid neoplasm diffuse large B-cell lymphoma): B (>=20% of tumors above the cutoff, but <50%)
337: peptide found in LRBA (gene looked up) (KVLGKIEKV; listed as Homo sapiens) [compound 337]	I (<19% over-expression = I)	II (20-49% = II)	I (<19% over-expression = I)	I (<19% over-expression = I)	I (<19% over-expression = I)	I (<19% over-expression = I)	I (<19% over-expression = I)	I (<19% over-expression = I)	I (<19% over-expression = I)	I (<19% over-expression = I)	II (20-49% = II)	I (<19% over-expression = I)	RCC, CRC	–	–
329: peptide found in ABCC2 (gene looked up) (FAWEPSFRDQV; listed as Homo sapiens) [compound 329]	I (<19% over-expression = I)	I (<19% over-expression = I)	I (<19% over-expression = I)	I (<19% over-expression = I)	I (<19% over-expression = I)	III (50-69% = III)	I (<19% over-expression = I)	I (<19% over-expression = I)	I (<19% over-expression = I)	I (<19% over-expression = I)	I (<19% over-expression = I)	I (<19% over-expression = I)	SCLC, HCC	GBC_CCC	–
338: peptide found in LRBA (gene looked up) (LLYDGKLSSA; listed as Homo sapiens) [compound 338]	I (<19% over-expression = I)	II (20-49% = II)	I (<19% over-expression = I)	I (<19% over-expression = I)	I (<19% over-expression = I)	I (<19% over-expression = I)	I (<19% over-expression = I)	I (<19% over-expression = I)	I (<19% over-expression = I)	I (<19% over-expression = I)	II (20-49% = II)	I (<19% over-expression = I)	–	CRC, UBC, OC	–

For some of these results: Expression values are those of the mRNA of the gene that encodes the peptide; a gene is named only where it was looked up.
